Laboratory results: paper PMC4503747
Substitutions are numbered along the chain they refer to. No constants are given. Whether binding was seen depends on the method and setting. In cells and extracts the contact can be indirect. Some entries that bind do so weakly or less than the wild type. For some of these results: Where a sequence is shown, tags or fusion partners need not be part of it.

The chains behind the UniProt entries cited, without tags or fusion partners.
UniProt P11440: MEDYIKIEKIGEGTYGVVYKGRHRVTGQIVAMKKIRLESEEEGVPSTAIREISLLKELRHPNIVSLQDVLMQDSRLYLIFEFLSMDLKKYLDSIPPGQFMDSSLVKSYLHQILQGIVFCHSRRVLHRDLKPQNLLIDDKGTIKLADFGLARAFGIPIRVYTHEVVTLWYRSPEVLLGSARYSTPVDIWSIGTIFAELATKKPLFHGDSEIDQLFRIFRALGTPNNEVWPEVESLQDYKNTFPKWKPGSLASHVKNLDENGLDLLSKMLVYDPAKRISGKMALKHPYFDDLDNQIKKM
UniProt P00546: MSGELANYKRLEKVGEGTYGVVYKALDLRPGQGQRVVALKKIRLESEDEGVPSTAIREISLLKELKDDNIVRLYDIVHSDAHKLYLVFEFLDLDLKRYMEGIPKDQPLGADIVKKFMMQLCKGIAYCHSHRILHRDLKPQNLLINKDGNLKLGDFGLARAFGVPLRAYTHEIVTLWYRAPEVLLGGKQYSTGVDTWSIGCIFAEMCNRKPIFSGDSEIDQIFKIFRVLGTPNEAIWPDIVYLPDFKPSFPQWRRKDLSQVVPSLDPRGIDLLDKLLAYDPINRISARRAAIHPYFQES

Experiments:
[1] = target: GST-Yih1*H2 (E87A and D90A in helix H2 of the RWD domain) (S. cerevisiae) (UniProt P25637); experiment: pull-down; in vivo GST pull-down: GST fusions overexpressed in yeast from a galactose-inducible promoter (yih1Δ strains; gcn1Δ strain H2556 for the fragments; also cells arrested in G1 with α-factor and released), WCE (1-2 mg) on glutathione beads, immunoblot for endogenous proteins
[2] = target: T1, GST-Yih1 purified from E. coli (S. cerevisiae) (UniProt P25637); experiment: pull-down; purified GST-Yih1 (2, 4 and 6 μg) or GST alone (6 μg) immobilized on glutathione-Sepharose beads blocked with 0.5% BSA, incubated with yeast WCE of a yih1Δ strain (MSY-Y2) for 1 hour at 4°C; 30 mM HEPES pH 7.4, 200 mM NaCl, 1 mM EDTA, 1 mM DTT, 0.5% Nonidet P40; immunoblot; only the target purified
T1 sequence: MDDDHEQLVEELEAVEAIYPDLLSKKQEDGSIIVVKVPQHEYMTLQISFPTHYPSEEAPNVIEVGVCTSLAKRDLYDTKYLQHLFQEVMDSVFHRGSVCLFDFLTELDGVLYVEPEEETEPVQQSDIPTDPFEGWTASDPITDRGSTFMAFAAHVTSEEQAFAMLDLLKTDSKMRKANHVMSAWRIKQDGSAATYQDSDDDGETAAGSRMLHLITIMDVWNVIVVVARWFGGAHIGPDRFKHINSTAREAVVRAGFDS

[3] = target: T2, IMPACT-FLAG (full-length IMPACT in pFLAG-CMV5a, expressed in N2a cells) (mouse) (UniProt O55091); experiment: co-IP; N2a cells transfected with IMPACT-FLAG or vector alone; lysate (50 mM Tris pH 7.4, 1 mM EDTA, 100 mM NaCl, 1% Triton X-100) pre-cleared with protein-A agarose, anti-FLAG (M2) affinity gel 1 hour at 4°C, eluted with FLAG peptide; immunoblot
T2 sequence: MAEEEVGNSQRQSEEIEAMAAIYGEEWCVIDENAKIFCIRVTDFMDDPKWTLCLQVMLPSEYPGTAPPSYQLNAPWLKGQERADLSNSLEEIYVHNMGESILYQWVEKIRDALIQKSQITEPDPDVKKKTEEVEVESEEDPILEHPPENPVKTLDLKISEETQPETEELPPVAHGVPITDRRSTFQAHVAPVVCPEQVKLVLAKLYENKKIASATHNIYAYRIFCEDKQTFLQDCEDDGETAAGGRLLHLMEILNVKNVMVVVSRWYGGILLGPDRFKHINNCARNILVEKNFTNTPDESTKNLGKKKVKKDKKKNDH

[4] = target: T3, GST-Yih1*H3 (D102A E106A in helix H3 of the RWD domain) (S. cerevisiae) (UniProt P25637); experiment: pull-down; in vivo GST pull-down: GST fusions overexpressed in yeast from a galactose-inducible promoter (yih1Δ strains; gcn1Δ strain H2556 for the fragments; also cells arrested in G1 with α-factor and released), WCE (1-2 mg) on glutathione beads, immunoblot for endogenous proteins
T3 sequence: T1 sequence with D102A, E106A

[5] = target: T4, GST-Yih1[133–258] (S. cerevisiae) (UniProt P25637); experiment: as above
T4 sequence: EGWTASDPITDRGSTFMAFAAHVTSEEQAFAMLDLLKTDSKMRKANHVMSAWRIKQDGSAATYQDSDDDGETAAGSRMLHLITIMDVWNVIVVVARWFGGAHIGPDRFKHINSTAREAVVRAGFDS

[6] = target: T5, GST-Yih1[2–132] (S. cerevisiae) (UniProt P25637); experiment: as above
T5 sequence: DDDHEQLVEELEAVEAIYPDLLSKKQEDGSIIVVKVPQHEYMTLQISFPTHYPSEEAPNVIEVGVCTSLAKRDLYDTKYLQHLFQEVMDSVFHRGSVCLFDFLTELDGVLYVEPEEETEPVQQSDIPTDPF

[7] = target: T6, GST-Yih1[68–171] (S. cerevisiae) (UniProt P25637); experiment: as above
T6 sequence: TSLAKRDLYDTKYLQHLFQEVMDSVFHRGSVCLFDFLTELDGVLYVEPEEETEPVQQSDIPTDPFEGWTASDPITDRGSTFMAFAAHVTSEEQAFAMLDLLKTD

[8] = target: T7, GST-Yih1[2–171] (S. cerevisiae) (UniProt P25637); experiment: as above
T7 sequence: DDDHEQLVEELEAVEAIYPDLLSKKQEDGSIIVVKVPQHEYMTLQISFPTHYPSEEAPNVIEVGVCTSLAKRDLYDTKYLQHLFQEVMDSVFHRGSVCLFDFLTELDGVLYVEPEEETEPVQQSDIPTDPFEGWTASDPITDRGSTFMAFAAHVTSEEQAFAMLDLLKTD

[9] = target: T8, GST-Yih1[68–258] (S. cerevisiae) (UniProt P25637); experiment: as above
T8 sequence: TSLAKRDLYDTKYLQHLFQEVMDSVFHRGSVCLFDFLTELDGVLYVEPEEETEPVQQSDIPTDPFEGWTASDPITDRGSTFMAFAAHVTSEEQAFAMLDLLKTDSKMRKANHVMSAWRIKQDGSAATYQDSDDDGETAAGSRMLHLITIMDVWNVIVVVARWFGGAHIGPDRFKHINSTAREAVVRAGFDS

[10] = target: T9, GST-IMPACT (mouse IMPACT fused to GST, expressed in yeast) (mouse) (UniProt O55091); experiment: as above
T9 sequence: T2 sequence

Histone-H3 (endogenous, yeast whole cell extract) (from UniProt P61830 1-136)
binding [1]: no binding
binding [2]: no binding (tested: 2, 4 and 6 μg GST-Yih1)

CDK1 (endogenous, mouse N2a cells) (from UniProt P11440 1-297)
binding [3]: binds

Cdc28 (endogenous, yeast whole cell extract) (from UniProt P00546 1-298)
binding [4]: binds
binding [5]: binds
binding [6]: binds
binding [7]: binds
binding [8]: binds
binding [9]: binds
binding [10]: binds
